Measurements as given in PubChem BioAssay AID504467 (National Center for Advancing Translational Sciences (NCATS), 2011).
Out of some 330,000 compounds screened, about 7,700 (2.3%) were called active. The inconclusive results got no clear call from the source; some entries with a clear call stand among them for comparison. Calls come from the whole dose curve; as a rule, active = well fitted inhibition curve with a large enough effect; inconclusive = small, poorly fitted or top-dose-only effect, or effect the other way; inactive = flat fitted curve, though single readings scatter. Potencies beside an inconclusive call are fits to weak or partial responses and may not hold up.

assay: qHTS screen for small molecules that inhibit ELG1-dependent DNA repair in human embryonic kidney (HEK293T) cells expressing luciferase-tagged ELG1; conditions: HEK293T ELG1-luciferase reporter, luminescence, 16 h, DNA damage induced by 5-fluorouridine; series mostly up to 46.1 µM; note: nearly all actives have a fitted effect of over 55% in size
How it was run: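 HEK293T cells expressing luciferase-tagged ELG1 (2,000/well) received 5-Fluorouridine plus compound or DMSO for 16 hr at 37 °C. Luciferase was read by ONE-Glo luminescence after 30 min at room temperature.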
Potency is the fitted concentration of half-maximal effect.

| Structure (SMILES) | Potency |
| --- | --- |
| c1ccc(-c2cc3n(c2)CCc2ccccc2-3)cc1 | inconclusive: 23.1 µM [inhibitor, single point] |
| O=P(O)(CCc1ccccn1)CN1CCOCC1 | inactive |
| COc1cc(CNCc2ccccc2)ccc1OCC(O)c1ccccc1 (stereo not given) | inactive |
| Cc1ccc(NC(=O)CCc2c[nH]c3ccccc23)nc1 | inconclusive: 20.6 µM [activator, single point] |
| CSc1cccc(NC(=O)N2CCc3ccc(NC(=O)c4ccccn4)cc3C2)c1 | inconclusive: 2.91 µM [activator, single point] |
| COc1cccc(NC(=O)Cn2c(=O)n(-c3ccccc3)c(=O)c3oc4ccccc4c32)c1 | inactive |
| COc1ccc(NC(=O)CN2CCN(C3c4ccccc4-c4ccccc43)CC2)cc1 | active: 6.51 µM |
| CCn1ncc(C2=NOC(C(=O)Nc3ccc(C)cc3)C2)c1C (stereo not given) | inactive |
| CC(NCc1cc(Br)ccc1OCC(=O)NCc1ccccc1)c1ccccc1 (stereo not given) | inconclusive: 25.9 µM [inhibitor, single point] |
| CCc1ccc(CN(C)CC(=O)Nc2ccc(S(=O)(=O)N3CCOCC3)cc2)cc1 | inconclusive: 11.2 µM [inhibitor, partial curve, poor fit] |
| COc1ccc(/C=N/NC(=O)Nc2cccc3nsnc23)cc1OC | active: 2.59 µM |
| CCN1CCN(CC(=O)c2c(C)n(C)c3ccc(OC)cc23)CC1 | inactive |
| COc1cccc(CNS(=O)(=O)c2ccc3c(c2)CC(C)N3C(=O)C2CC2)c1 (stereo not given) | inactive |
| Cc1cccc(OCCCC(=O)Nc2ccc(S(=O)(=O)N3CCCC3)cc2)c1 | active: 18.4 µM |
| Cc1cccn2c(=O)c3cc(C(=O)NCCc4ccccc4)c(=N)n(Cc4ccco4)c3nc12 | active: 14.6 µM |
| COc1cccc(CN(C)CC(=O)Nc2ccccc2C(=O)Nc2ccccc2)c1 | inconclusive: 23.1 µM [inhibitor, single point] |
| C/C(=N\Nc1nc(Nc2ccccc2)nc(N2CCOCC2)n1)c1cccs1 | inconclusive: 14.6 µM [inhibitor, partial curve] |
| Cc1ccc2c(-c3csc(N)n3)c[nH]c2c1 | inactive |
| COc1cc(/C=C(\C#N)C(=O)Nc2ccccc2C(=O)O)cc(Cl)c1OC | inactive |
| CC1(O)CC(c2ccc(Cl)cc2)=NN1C(=O)c1ccc([N+](=O)[O-])cc1 (stereo not given) | inconclusive: 25.9 µM [inhibitor, single point] |
| O=[N+]([O-])c1ccc(O)c(/C=N/Nc2ccccc2Cl)c1 | inconclusive: 2.91 µM [activator, partial curve] |
| O=C(NCCCN1CCCCC1)C1CCN(S(=O)(=O)N2CCC3(CC2)OCCO3)CC1 | inactive |
| O=C(Nc1ccc(F)cc1)/C(=C1/CCCCCN1)[N+](=O)[O-] | inconclusive: 0.092 µM [activator, full curve, poor fit] |
| O=C1c2cccc3c([N+](=O)[O-])ccc(c23)C(=O)N1CCc1ccccn1 | inactive |

| Structure (SMILES) | Potency |
| --- | --- |
| CCOc1ccccc1NC(=S)NC1CC2CCC1C2 (stereo not given) | inconclusive: 25.9 µM [inhibitor, single point] |
| Cc1ccc(S(=O)(=O)Oc2ccc(C)cc2/C=N/N=C2\NC(=O)C(C)S2)cc1 (stereo not given) | inconclusive: 20.6 µM [activator, partial curve] |
| COc1nc(-c2ccccc2)cc(-c2ccc(OC)c(OC)c2)n1 | inconclusive: 29.1 µM [inhibitor, single point] |
| CCCCN(CC)CCNC(=O)CCC(=O)Nc1ccc2nc(N3CCN(C)CC3)cc(C)c2c1 | inconclusive: 14.6 µM [activator, partial curve, poor fit] |
| Cc1ccccc1OCC(=O)Nc1ccccc1-c1ccccc1 | inconclusive: 1.64 µM [activator, full curve] |
| O=C(O)/C=C/c1ccc(OCc2cccc(F)c2)cc1 | inconclusive: 18.3 µM [activator, partial curve] |
| CCCc1ccc2oc(C(=O)N(Cc3ccncc3)CC3CCCO3)c(C)c2c1 (stereo not given) | inconclusive: 18.3 µM [inhibitor, single point] |
| CCCC(CCC)=NNC(=O)c1ccccc1F | inconclusive: 29.1 µM [activator, single point] |
| O=C(Nc1ccncc1)c1ccc(Cl)c(S(=O)(=O)N2CCc3ccccc32)c1 | inconclusive: 5.17 µM [inhibitor, single point] |
| CCc1ccc(-c2nc(SCC(=O)N3CCOCC3)n[nH]2)cc1 | inconclusive: 20.6 µM [activator, single point] |
| COc1ccc(-c2csc(NC(=O)Cc3cc(OC)c(OC)c(OC)c3)n2)cc1OC | inconclusive: 29.1 µM [inhibitor, single point] |
| COC(=O)c1ccc(CSC(=N)N)o1 | inactive |
| CN(C)/C=C/C(=O)c1cnc(-c2ccccc2)s1 | inconclusive: 16.4 µM [activator, partial curve] |
| C=CCn1cnc2c(nnn2-c2ccc(C)c(C)c2)c1=O | inconclusive: 18.3 µM [activator, partial curve] |
| Cc1ccc(C(=O)NC2CC3CCCC(C2)N3C(=S)NCc2ccco2)cc1 (stereo not given) | inconclusive: 16.4 µM [inhibitor, partial curve, poor fit] |
| C=CCn1c(COc2ccccc2)nnc1SCc1ccc(C#N)cc1 | inactive |
| Cc1cc(C)c(OCC(=O)OCC(=O)N(C)C2CCS(=O)(=O)C2)c(C)c1 (stereo not given) | inactive |
| CN(C)CCCNC(=O)/C(=C/c1ccc(-c2ccc([N+](=O)[O-])cc2)o1)NC(=O)c1ccccc1 | inconclusive: 6.51 µM [inhibitor, single point] |
| O=C(CCSCc1ccc(Cl)cc1)NCc1cccs1 | inconclusive: 2.59 µM [inhibitor, partial curve, poor fit] |
| CS(=O)(=O)N1CCN(c2ccccc2NC(=O)c2cc(Br)ccc2Cl)CC1 | inconclusive: 29.1 µM [inhibitor, partial curve, poor fit] |
| CCCn1c(N)c(C(=O)COC(=O)c2cccc(S(=O)(=O)N3CCOCC3)c2)c(=O)[nH]c1=O | inconclusive: 23.1 µM [inhibitor, single point] |
| O=C(CCSc1nc(-c2ccco2)cc(C(F)(F)F)n1)NCc1cccs1 | inconclusive: 32.6 µM [inhibitor, single point] |
| O=C(Nc1ncccc1O)c1ccc(Cl)c(S(=O)(=O)N2CCCCC2)c1 | inactive |
| CC(C)C(=O)Nc1ccc(Br)cc1Cl | inconclusive: 4.61 µM [inhibitor, partial curve, poor fit] |

| Structure (SMILES) | Potency |
| --- | --- |
| CCOc1ccc(N2C(=O)/C(=C/c3ccco3)N(C)C2=S)cc1 | inactive |
| CC(C)CNC(=O)/C=C/c1cccs1 | inconclusive: 18.4 µM [activator, single point] |
| Cc1ccc(-n2c(C)csc2=N)cc1 | inconclusive: 20.6 µM [activator, partial curve] |
| COc1ccc2c(c1)c1nc3ccccc3nc1n2Cc1ccc(OC(C)C)c(OC)c1 | inconclusive: 11.6 µM [inhibitor, partial curve] |
| Cc1ccc(S(=O)(=O)N(C)C)cc1NC(=O)CN1c2cccc3cccc(c23)S1(=O)=O | inconclusive: 13 µM [inhibitor, partial curve] |
| Clc1ccc(OCc2nc(-c3ccncc3)no2)c(Br)c1 | inconclusive: 5.8 µM [activator, partial curve] |
| CC(C)(C)Nc1nc(SCC(=O)Nc2ccccc2Cl)nc(N2CCOCC2)n1 | inconclusive: 32.6 µM [inhibitor, single point] |
| Cc1nn(-c2nc3ccccc3s2)c(N)c1-c1ccc(Cl)cc1 | inconclusive: 9.2 µM [activator, partial curve] |
| Cc1ccc(-c2csc3ncnc(N4CCN(c5ccccc5O)CC4)c23)cc1 | active: 5.8 µM |
| CSc1ccc(CN(C)CC(=O)NCc2ccccc2)cc1 | inactive |
| Cc1cccn2cc(-c3ccc(S(=O)(=O)N4CCOCC4)cc3)nc12 | inconclusive: 29.1 µM [inhibitor, single point] |
| Cc1cccc(-c2cc(C(=O)Nc3ccc4c(c3)OCCO4)c3ccccc3n2)c1 | inconclusive: 18.4 µM [inhibitor, partial curve] |
| NC(=O)c1cnccn1 | inactive |
| COc1ccc(-c2nnc(SC(C)C(=O)NNC(=O)c3ccc(C)cc3)o2)cc1 (stereo not given) | inactive |
| Cn1c(=NC(=O)CCl)sc2ccccc21 | inconclusive: 15.8 µM [inhibitor, partial curve, poor fit] |
| Cc1ccc(Cl)cc1N1CCN(S(=O)(=O)c2cccc(S(=O)(=O)N3CCCC3)c2)CC1 | inactive |
| C=CCc1cccc2cc(C(=O)NNC(=O)c3ccncc3)c(=O)oc12 | inactive |
| N#Cc1ccsc1NC(=O)CN1C(=O)NC2(CCCC2)C1=O | inconclusive: 8.2 µM [activator, single point] |
| Cc1c(C)n(Cc2ccc(Cl)cc2)c2ccc(C(=O)NCCCN3CCOCC3)cc12 | inconclusive: 20.6 µM [inhibitor, partial curve, poor fit] |
| COCCOC(=O)c1[nH]c2c(c1C)C(=O)CC(c1ccc(F)cc1)C2 (stereo not given) | inconclusive: 14.6 µM [inhibitor, single point] |
| Cc1cc2cc(CN(Cc3ccc4c(c3)OCO4)Cc3nnnn3C3CCCC3)c(=O)[nH]c2cc1C | inconclusive: 16.4 µM [inhibitor, partial curve, poor fit] |
| Cc1ccc(NC(=O)c2ccc(CSc3ncnc4nc[nH]c34)cc2)c(C)c1 | inconclusive: 29.1 µM [inhibitor, single point] |

5 compounds out of the list, ordered by heavy-atom count, smallest number first:

| Structure (SMILES) | Potency |
| --- | --- |
| Cc1ccc(-n2c(C)csc2=N)cc1 | inconclusive: 20.6 µM [activator, partial curve] |
| N#Cc1ccsc1NC(=O)CN1C(=O)NC2(CCCC2)C1=O | inconclusive: 8.2 µM [activator, single point] |
| CC(C)(C)Nc1nc(SCC(=O)Nc2ccccc2Cl)nc(N2CCOCC2)n1 | inconclusive: 32.6 µM [inhibitor, single point] |
| Cc1ccc(Cl)cc1N1CCN(S(=O)(=O)c2cccc(S(=O)(=O)N3CCCC3)c2)CC1 | inactive |
| Cc1cc2cc(CN(Cc3ccc4c(c3)OCO4)Cc3nnnn3C3CCCC3)c(=O)[nH]c2cc1C | inconclusive: 16.4 µM [inhibitor, partial curve, poor fit] |
